The values that follow come from patent publication EP3858345B1, “RADIOTRACER DERIVATIVES OF TRIMETHOPRIM FOR DIAGNOSTIC IMAGING” (dated 2026).

The test system of the test is HEK293 cells carrying DHFR transgene. In words: Cell sensitivity experiment, DHFR cells in matrigel, PET and gamma counting. Particulars: injected in 150 µL matrigel, imaged the next day.

The source holds more than one record for some entries. The list is limited to them. The source may hold further records. The values listed for one entry do not match, cause unknown; they may come from other doses, times, organisms or constructs than stated.

On to `COc1cc(Cc2cnc(N)nc2N)cc(OC)c1O[11CH3]`, for which the “number of implanted cells detected” value was 300K and 3 x 10^5 cells.
